Common to all, as to conditions: remark: other sources report otherwise
In assay [1] the target is mCherry-NME1 (human), P15531. Briefly: FRET or BRET; FRET-FLIM (TCSPC) in live transfected HeLa cells at 37 °C; donor EGFP fusion, acceptor mCherry fusion; fraction of donors that experience FRET (DF) from a double-exponential fit; whole cells, and nucleus and cytoplasm apart; cells not irradiated or irradiated with 15 Gy gamma rays (Co-60). Background: In BRET a luciferase serves as donor, and the signal depends on an acceptor being close.

In assay [2] the target is T1, mCherry-NME2 (human), P22392.
T1 chain: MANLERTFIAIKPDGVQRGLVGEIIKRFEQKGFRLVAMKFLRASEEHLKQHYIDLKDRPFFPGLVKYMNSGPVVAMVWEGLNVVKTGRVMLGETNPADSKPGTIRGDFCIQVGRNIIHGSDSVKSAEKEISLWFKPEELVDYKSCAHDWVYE
The assay is described as above.

In assay [3] the target is NME1-FLAG (human), P15531. Briefly: co-IP; anti-FLAG M2 agarose on nuclear and cytosolic fractions of co-transfected HeLa cells after induction of DNA damage (30 Gy); 100 µg total protein, overnight at 4 °C; beads equilibrated in TENN buffer (50 mM Tris pH 7.4, 150 mM NaCl, 5 mM EDTA, 0.5% NP-40); blot with anti-NME2.

No constants are given. Whether binding was seen depends on the method and setting. In cells and extracts the contact can be indirect. Some entries that bind do so weakly or less than the wild type. For some assays here: Tags and fused reporters may be left off the sequences shown.

B1: EGFP-NME2, P22392 1-152 (protein)
chain: MANLERTFIAIKPDGVQRGLVGEIIKRFEQKGFRLVAMKFLRASEEHLKQHYIDLKDRPFFPGLVKYMNSGPVVAMVWEGLNVVKTGRVMLGETNPADSKPGTIRGDFCIQVGRNIIHGSDSVKSAEKEISLWFKPEELVDYKSCAHDWVYE
With B1, the binding result in assay [1] and in assay [2] was “binds” in each case.

B2: NME2-EGFP, P22392 1-152 (protein)
chain: MANLERTFIAIKPDGVQRGLVGEIIKRFEQKGFRLVAMKFLRASEEHLKQHYIDLKDRPFFPGLVKYMNSGPVVAMVWEGLNVVKTGRVMLGETNPADSKPGTIRGDFCIQVGRNIIHGSDSVKSAEKEISLWFKPEELVDYKSCAHDWVYE
In the case of B2, the binding result in assay [1] and in assay [2] was “binds” each time.

B3: NME2, P22392 1-152 (protein)
chain: MANLERTFIAIKPDGVQRGLVGEIIKRFEQKGFRLVAMKFLRASEEHLKQHYIDLKDRPFFPGLVKYMNSGPVVAMVWEGLNVVKTGRVMLGETNPADSKPGTIRGDFCIQVGRNIIHGSDSVKSAEKEISLWFKPEELVDYKSCAHDWVYE
Turning to B3, the binding result in assay [3] was “binds”.

The record behind these values is PMC7177722.
